Record: PubChem BioAssay AID504791 (Drosophila RNAi Screening Center, 2011)
The screen tested about 23,000 reagents; shown is an unselected part of those with a known target gene and a result. Of all reagents, 199 (0.86%) are marked active. 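Plate-scaled ratios behind the calls are not deposited; printed light signals are raw; many rows marked increased or decreased are still called inactive.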 Unmarked entries are inactive. Names joined by + are all predicted targets of the reagent. No sequences are given here. The record does not give: the direction of the score.

- Screen: 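Genes whose knock-down strengthens or weakens small-RNA reporter silencing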 (primary screen)
- System: Drosophila S2-derived reporter cells
- Reagent: long dsRNA against Drosophila genes, about 150-250 ng dsRNA per well (siRNA assay); about 80-120 ng (miRNA assay)
- Duration: about 5 days (siRNA assay); about 4 days (miRNA assay)
- Conditions: copper sulfate induction of reporters: 25 µM (siRNA assay); 200 mM stated (miRNA assay), 1-2 days before reading
- Read-out: 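Per-well ratio of Renilla over firefly light, expressed relative to that plate's average ratio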
- Active means: 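First-pass picks had plate-scaled ratios over 1.5 for the siRNA assay, over 1.6 for the miRNA assay, or under 0.6; two distinct dsRNAs had to score alike on retest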

Tl (GeneID 43222) [DRSC16885]
- stable assay Renilla, run 1 (luminescence): 7754
- stable assay firefly, run 1 (luminescence): 4.84e5

Rdl (GeneID 39054) [DRSC11264]
- stable assay Renilla, run 1 (luminescence): 7256
- stable assay firefly, run 1 (luminescence): 3.81e5

trx (GeneID 41737) [DRSC17089]
- stable assay Renilla, run 1 (luminescence): 6907
- stable assay firefly, run 1 (luminescence): 4.45e5

Grip91 (GeneID 48481) [DRSC20249]
- stable assay Renilla, run 1 (luminescence): 9851
- stable assay firefly, run 1 (luminescence): 6.68e5

Ythdc1 (GeneID 38420) [DRSC08141]
- stable assay Renilla, run 1 (luminescence): 8126
- stable assay firefly, run 1 (luminescence): 5.44e5

CG31174 (GeneID 318616) [DRSC13518]
- stable assay Renilla, run 1 (luminescence): 5223
- stable assay firefly, run 1 (luminescence): 4.51e5

Nepl14 (GeneID 42700) [DRSC15631]
- stable assay Renilla, run 1 (luminescence): 7783
- stable assay firefly, run 1 (luminescence): 3.55e5

CG31637 (GeneID 33914) [DRSC02270]
- stable assay Renilla, run 1 (luminescence): 11482
- stable assay firefly, run 1 (luminescence): 1.14e6

CG31637 (GeneID 33914) [DRSC03263]
- stable assay Renilla, run 1 (luminescence): 8924
- stable assay firefly, run 1 (luminescence): 6.85e5

ihog (GeneID 33972) [DRSC03157]
- stable assay Renilla, run 1 (luminescence): 54465
- stable assay firefly, run 1 (luminescence): 2.07e5

CG12121 (GeneID 31866) [DRSC17816]
- stable assay Renilla, run 1 (luminescence): 5510
- stable assay firefly, run 1 (luminescence): 4.65e5

HnRNP-K (GeneID 43862) [DRSC07585]
- stable assay Renilla, run 1 (luminescence): 5850
- stable assay firefly, run 1 (luminescence): 5.51e5

HnRNP-K (GeneID 43862) [DRSC22734]
- stable assay Renilla, run 1 (luminescence): 1995
- stable assay firefly, run 1 (luminescence): 2.89e5

2 entries from above, reformatted.
target,amplicon,miRNA reporter change,"stable assay Renilla, run 1 (luminescence)","stable assay firefly, run 1 (luminescence)"
CG12121 (GeneID 31866),DRSC17816,,5510,4.65e5
HnRNP-K (GeneID 43862),DRSC07585,,5850,5.51e5

More results follow:
CG31496 (GeneID 326145) [DRSC12547]
- stable assay Renilla, run 1 (luminescence): 5027
- stable assay firefly, run 1 (luminescence): 5.10e5

CG31496 (GeneID 326145) [DRSC27899]
- miRNA reporter change: reporter ratio raised past the hit cutoff

CG7453 (GeneID 32903) [DRSC20046]
- stable assay Renilla, run 1 (luminescence): 6431
- stable assay firefly, run 1 (luminescence): 4.74e5

CG31454 (GeneID 318744) [DRSC14365]
- stable assay Renilla, run 1 (luminescence): 5343
- stable assay firefly, run 1 (luminescence): 4.04e5

CG31454 (GeneID 318744) [DRSC22801]
- stable assay Renilla, run 1 (luminescence): 3211
- stable assay firefly, run 1 (luminescence): 3.00e5

CG5509 (GeneID 41539) [DRSC15822]
- stable assay Renilla, run 1 (luminescence): 7422
- stable assay firefly, run 1 (luminescence): 4.50e5

CG2698 (GeneID 40945) [DRSC15447]
- stable assay Renilla, run 1 (luminescence): 6383
- stable assay firefly, run 1 (luminescence): 4.07e5

VAChT + ChAT [DRSC13312]
- stable assay Renilla, run 1 (luminescence): 4319
- stable assay firefly, run 1 (luminescence): 4.01e5

gfzf (GeneID 40858) [DRSC12506]
- stable assay Renilla, run 1 (luminescence): 6990
- stable assay firefly, run 1 (luminescence): 4.64e5

gfzf (GeneID 40858) [DRSC21874]
- stable assay Renilla, run 1 (luminescence): 7695
- stable assay firefly, run 1 (luminescence): 6.48e5

Obp22a (GeneID 246672) [DRSC00088]
- stable assay Renilla, run 1 (luminescence): 5927
- stable assay firefly, run 1 (luminescence): 3.65e5

CG1620 (GeneID 35678) [DRSC06603]
- stable assay Renilla, run 1 (luminescence): 51236
- stable assay firefly, run 1 (luminescence): 2.33e6

Cul2 (GeneID 35420) [DRSC03710]
- stable assay Renilla, run 1 (luminescence): 58971
- stable assay firefly, run 1 (luminescence): 4.66e5

NKAIN (GeneID 37979) [DRSC04531]
- stable assay Renilla, run 1 (luminescence): 11816
- stable assay firefly, run 1 (luminescence): 1.60e6

NKAIN (GeneID 37979) [DRSC22470]
- stable assay Renilla, run 1 (luminescence): 3039
- stable assay firefly, run 1 (luminescence): 3.32e5
